Among the data in publication PMC6317983 are binding values, retold here.

Protein sequences, listed by entry. Tags and fused reporters are not part of them. Lines headed by an entry give the natural chain unless they say otherwise; changes in a name come on top.
UniProt M4IWN3: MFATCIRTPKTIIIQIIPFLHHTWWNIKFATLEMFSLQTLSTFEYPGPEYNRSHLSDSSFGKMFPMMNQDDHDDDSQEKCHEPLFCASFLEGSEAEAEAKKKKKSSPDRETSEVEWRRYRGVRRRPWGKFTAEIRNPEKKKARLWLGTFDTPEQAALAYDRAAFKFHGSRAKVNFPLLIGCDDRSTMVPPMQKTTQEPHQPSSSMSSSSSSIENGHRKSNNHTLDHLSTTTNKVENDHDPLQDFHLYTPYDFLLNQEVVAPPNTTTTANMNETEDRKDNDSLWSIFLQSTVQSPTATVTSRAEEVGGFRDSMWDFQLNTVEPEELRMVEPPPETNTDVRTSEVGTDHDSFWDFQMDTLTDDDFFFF
UniProt A0A5A4N0D4: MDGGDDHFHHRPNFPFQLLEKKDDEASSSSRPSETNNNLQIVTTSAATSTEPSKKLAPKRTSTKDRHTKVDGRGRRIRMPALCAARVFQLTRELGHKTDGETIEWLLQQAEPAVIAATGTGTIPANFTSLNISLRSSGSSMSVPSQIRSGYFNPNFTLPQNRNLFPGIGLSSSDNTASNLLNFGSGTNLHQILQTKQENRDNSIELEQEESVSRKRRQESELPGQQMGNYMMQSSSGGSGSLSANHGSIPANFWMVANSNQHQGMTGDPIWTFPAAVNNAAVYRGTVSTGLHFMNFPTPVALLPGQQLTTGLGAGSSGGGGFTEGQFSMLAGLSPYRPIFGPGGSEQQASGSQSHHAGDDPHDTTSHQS

No constants are given. Whether binding was seen depends on the method and setting. Binding can be weak; no strength is given.

Test [1] addresses AaJAZ8 (yeast two-hybrid fusion) (Artemisia annua). Put plainly: two-hybrid; directed Y2H, pGADT7 and pGKBT7 fusions cotransformed into yeast AH109; growth on TDO and/or QDO, 4 days at 30°C.
Test [2] addresses BD-AaTCP14 (Artemisia annua). The test is described as above.
In test [3] the target is BD-AaTCP14 (Artemisia annua). Put plainly: two-hybrid; Y3H: pBridge-AaTCP14 (BD) with or without AaJAZ8 under the MET25 promoter, pGADT7-AaORA, yeast AH109; growth on SD/-T/-L/-H/-A/-M and β-gal activity.
For test [4], the target named is GST-AaORA (Artemisia annua) (UniProt M4IWN3). In words: pull-down; purified GST-AaORA and His-AaTCP14 mixed with glutathione-agarose 4B beads, 10 hours at 4°C, 40 mM Hepes-KOH pH 7.5, 10 mM KCl, 3 mM MgCl2, 0.4 M sucrose, 1 mM EDTA, 1 mM DTT, 0.2% Triton X-100; anti-His blot; both purified.

Regarding AD-AaORA (from UniProt M4IWN3), the binding result in test [1], in test [2] and in test [3] was “binds” throughout.

Consider “AaJAZ8 (yeast two-hybrid fusion) (from UniProt A0A1S5T3I8)”, for which the binding entry in test [2] is recorded as “binds”.

As to AaMYC2 (from UniProt A0A0H4ITZ2), in test [1], the binding result is recorded as “binds”.

For His-AaTCP14 (from UniProt A0A5A4N0D4), the binding entry in test [4] was “binds”.
